Values quoted from earlier work as cited in US20040234631A1, “Composition comprising soy and use thereof in the provention and/or treatment of various diseases” (priority 2001, published 2004).
At least one compound was matched to its structure with a doubt left.

Test system: estrogenic effect
Conditions: in vitro, reported by Knight

C[C@]12CC[C@@H]3c4ccc(O)cc4CC[C@H]3[C@@H]1CC[C@@H]2O [estradiol]
relative estrogenic potency (estradiol = 100): 100
